# Reference: PubChem BioAssay AID651768 (National Center for Advancing Translational Sciences (NCATS), 2012)
# Protein sequences, listed by entry. Tags and fused reporters are not part of them.
# UniProt Q14191, whole entry, looked up: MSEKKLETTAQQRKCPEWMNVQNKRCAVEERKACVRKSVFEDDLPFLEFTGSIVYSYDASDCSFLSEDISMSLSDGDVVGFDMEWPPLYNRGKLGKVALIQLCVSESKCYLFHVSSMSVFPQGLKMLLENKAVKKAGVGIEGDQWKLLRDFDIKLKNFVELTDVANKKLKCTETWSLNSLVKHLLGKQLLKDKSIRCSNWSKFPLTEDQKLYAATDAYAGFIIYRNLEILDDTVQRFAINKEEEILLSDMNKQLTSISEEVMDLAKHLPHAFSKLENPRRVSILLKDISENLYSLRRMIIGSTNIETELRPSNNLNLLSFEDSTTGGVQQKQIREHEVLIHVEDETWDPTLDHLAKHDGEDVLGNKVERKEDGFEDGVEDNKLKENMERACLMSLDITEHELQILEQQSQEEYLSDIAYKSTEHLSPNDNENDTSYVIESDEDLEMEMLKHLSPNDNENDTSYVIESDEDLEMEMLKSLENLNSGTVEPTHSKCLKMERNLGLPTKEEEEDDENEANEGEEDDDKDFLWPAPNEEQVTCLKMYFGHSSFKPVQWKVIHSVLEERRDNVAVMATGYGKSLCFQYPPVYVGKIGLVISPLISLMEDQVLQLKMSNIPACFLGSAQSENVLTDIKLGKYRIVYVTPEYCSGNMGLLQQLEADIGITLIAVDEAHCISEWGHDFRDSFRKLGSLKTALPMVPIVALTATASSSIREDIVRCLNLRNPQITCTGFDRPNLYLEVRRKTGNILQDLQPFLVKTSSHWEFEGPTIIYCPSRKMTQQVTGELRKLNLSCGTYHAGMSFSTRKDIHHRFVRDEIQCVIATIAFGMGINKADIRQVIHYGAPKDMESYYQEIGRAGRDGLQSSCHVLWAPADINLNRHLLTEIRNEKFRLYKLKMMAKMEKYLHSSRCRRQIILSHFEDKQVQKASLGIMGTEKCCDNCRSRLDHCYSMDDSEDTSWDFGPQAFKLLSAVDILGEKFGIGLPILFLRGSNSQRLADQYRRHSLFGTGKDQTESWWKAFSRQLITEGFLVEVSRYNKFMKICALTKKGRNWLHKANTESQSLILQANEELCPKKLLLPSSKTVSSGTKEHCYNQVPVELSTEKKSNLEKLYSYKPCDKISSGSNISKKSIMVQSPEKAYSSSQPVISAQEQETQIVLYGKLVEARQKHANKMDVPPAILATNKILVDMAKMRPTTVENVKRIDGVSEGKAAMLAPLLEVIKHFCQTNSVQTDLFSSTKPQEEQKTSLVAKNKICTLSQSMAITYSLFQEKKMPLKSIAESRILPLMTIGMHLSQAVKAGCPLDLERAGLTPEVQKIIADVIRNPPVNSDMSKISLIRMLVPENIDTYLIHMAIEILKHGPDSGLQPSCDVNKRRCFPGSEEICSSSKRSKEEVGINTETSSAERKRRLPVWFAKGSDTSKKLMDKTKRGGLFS
# Hit rate of the full screen: of about 360,000 compounds, about 1,700 (0.47%) were called active. This list was built around the results that the source calls inconclusive (neither active nor inactive); the mix of calls is not that of the screen. Calls come from the whole dose curve; as a rule, active = well fitted inhibition curve with a large enough effect; inconclusive = small, poorly fitted or top-dose-only effect; inactive = no such curve, though single readings can be large or run the other way. A potency beside an inconclusive call is a rough fit, not a confirmed value.
# Molecular target: Bifunctional 3'-5' exonuclease/ATP-dependent helicase WRN (Homo sapiens) (UniProt Q14191)
# Test: qHTS for Inhibitors of WRN Helicase; note: nearly all actives have a fitted effect of over 55% in size
# Conditions: WRN helicase unwinding, fluorescent forked duplex, kinetic; activity change, negative = inhibition: at 114 µM (top of the series) unless noted
# How it was run: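 WRN at 20 nM final preincubated with compound 15 min at room temperature; reaction started with 100 nM fluorophore/quencher forked duplex oligonucleotide and 2 mM ATP final. Unwinding followed kinetically by red fluorescence (ex 525, em 598 nm).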
# % is set by controls: 0 for no effect and ±100 for the full control effect; potency is the fitted concentration of half-maximal effect.
Compound,Potency,"activity change, negative = inhibition"
CCCCC(=O)NC(=S)Nc1cccc(NC(=O)c2ccccc2)c1,"inconclusive: 70.8 µM [inhibitor, single point]",–
COc1cc2c(ccc3cc(OC)c(OC)c(O)c32)cc1O,active: 17.8 µM,–
Cc1ccc(CN2CCC(NC(=O)c3ccccc3)CC2)cc1,–,inactive: 11.9%
O=C(COC(=O)/C=C/c1ccc(F)cc1)NC1CC1,"inconclusive: 12.6 µM [inhibitor, single point]",–
CC1(C)CC[C@]2(C(=O)n3ccnc3)CC[C@]3(C)[C@H](C(=O)C=C4[C@@]5(C)C=C(C#N)C(=O)C(C)(C)[C@@H]5CC[C@]43C)[C@@H]2C1,"inconclusive: 39.8 µM [inhibitor, single point]",–
O=C(CCN1C(=O)/C(=C/c2ccco2)SC1=S)Nc1ccc(C(=O)O)c(O)c1,active: 44.7 µM,–
CCN(C(=O)COC(=O)CSc1ccc([N+](=O)[O-])cc1)C1CCS(=O)(=O)C1 (centres undefined),"inconclusive: 35.5 µM [inhibitor, full curve]",–
Cc1ccc(N2C(=O)C3CCC(c4ccccc4)CC3C2=O)cc1 (centres undefined),"inconclusive: 22.4 µM [inhibitor, single point]",–
CCC1(c2ccc(Cl)cc2)NC(=S)N(c2ccc(C)cc2)N1 (centres undefined),"inconclusive: 79.4 µM [inhibitor, partial curve]",–
Nc1ccc2[nH]c(=S)sc2c1,–,inconclusive: -76% [inhibitor]
Cc1ccc(-n2c(=S)[nH]c3sc4c(c3c2=O)CCC4)cc1,"inconclusive: 44.7 µM [inhibitor, single point]",–
COc1ccc2nc(C)cc(Nc3ccc(N4CCN(C)CC4)cc3)c2c1,"inconclusive: 14.1 µM [inhibitor, full curve]",–
Fc1ccc(N=c2ssnc2Cl)c(F)c1,active: 31.6 µM,–
Cc1ccc(/C=N/NC(=O)c2ccoc2C)s1,"inconclusive: 39.8 µM [inhibitor, single point]",–
CC(=O)N1CCC(C(=O)Nc2cc(C)cc(C)c2)CC1,"inconclusive: 10 µM [inhibitor, full curve, poor fit]",–
C=CCn1c(SCC(=O)c2ccc(O)c(O)c2)nnc1-c1ccc(OC)cc1,active: 28.2 µM,–
CCc1cccc(NC(=O)NC(=O)Cn2nnc(C(=O)OC)c2C(=O)OC)c1,"inconclusive: 50.1 µM [inhibitor, partial curve]",–
COc1ccc2nc(NC(=O)c3ccccc3C(=O)O)sc2c1,–,inactive: 3.93%
C[C@]12CS(=O)(=O)C[C@H]1SC(=S)N2c1ccccc1,"inconclusive: 39.8 µM [inhibitor, single point]",–
O=C(/C=C/c1ccc(Cl)c([N+](=O)[O-])c1)Nc1ccc(NC(=O)c2ccco2)cc1,"inconclusive: 25.1 µM [inhibitor, single point]",–
O=C(Cc1ccccc1)N1CCC(c2ccccc2)C1 (centres undefined),"inconclusive: 39.8 µM [inhibitor, single point]",–
O=S(=O)(/N=C(\Sc1ccc(Cl)cc1)c1ccccc1)c1ccccc1,"inconclusive: 56.2 µM [inhibitor, partial curve]",–
COc1ccc2[nH]c3nc(SCc4nnc(-c5ccccc5)o4)nnc3c2c1,–,inactive: -14.7%
COc1ccc(CN2CCNC(=O)C2CC(=O)NC2CCCCCC2)c(F)c1 (centres undefined),"inconclusive: 70.8 µM [inhibitor, single point]",–
COc1cc(/C=N/NC(=O)CCN2CCN(c3ccccc3)CC2)cc(OC)c1OC,"inconclusive: 14.1 µM [inhibitor, full curve, poor fit]",–

Compound,Potency,"activity change, negative = inhibition"
CC(=O)c1ccc(S(=O)(=O)Nc2cccc(-n3cnnn3)c2)cc1,active: 56.2 µM,–
O=C(O)c1cc(-c2ccco2)nc2ccccc12,"inconclusive: 56.2 µM [inhibitor, partial curve]",–
Cc1cccc(NC(=O)CSc2ccc(-c3ccco3)nn2)c1C,"inconclusive: 50.1 µM [inhibitor, partial curve]",–
Cc1ccc(-c2nc(NCCCO)c3ccccc3n2)cc1,–,inactive: 12.2%
O=C(CN1c2ccccc2Sc2ccccc21)N/N=C/c1ccc([N+](=O)[O-])cc1,"inconclusive: 4.47 µM [inhibitor, full curve, poor fit]",–
Cc1ccc2nc3c(cc(S(=O)(=O)c4ccccc4)c(=N)n3Cc3ccco3)c(=O)n2c1,–,inactive: -2.65%
O=C(N/N=C/c1ccccn1)c1cc(-c2ccc3ccccc3c2)n[nH]1,"inconclusive: 28.2 µM [inhibitor, partial curve]",–
CCCOc1cccc(C(=O)NC(=S)Nc2cccc(NC(=O)c3ccccc3Cl)c2)c1,"inconclusive: 31.6 µM [inhibitor, single point]",–
Cc1cc(C)n(C(CC(=O)N2CCc3ccccc3C2)C(=O)O)n1 (centres undefined),–,inactive: -11.5% [at 57.1 µM]
O=C(CC1SC(=O)N(c2ccccc2)C1=O)Nc1ccccc1 (centres undefined),active: 39.8 µM,–
O=C(/C=C/c1ccco1)Nc1cccnc1,–,inactive: 4.26%
CC(C)c1ccc(/C=C2\CC/C(=C\C=N\N(C)C)C2=O)cc1,–,inactive: -10.7%
CC(=O)c1ccc(OC2(C)CCN(Cc3ccc4ccccc4c3)C2)cc1 (centres undefined),–,inactive: 3.26%
COc1ccc(Sc2nnc(-c3ccccc3)cc2C#N)cc1,–,inconclusive: -37.2% [inhibitor] [at 57.1 µM]
Cc1ccc(NC(=O)C(C)OC(=O)c2nc(Cl)ccc2Cl)cc1S(=O)(=O)N1CCOCC1 (centres undefined),–,inactive: -3.56% [at 11.6 µM]
Cc1ccccc1NC(=O)CSc1nnc(-c2ccco2)c(-c2ccco2)n1,active: 39.8 µM,–
COc1ccc(S(=O)(=O)N2CCOCC2)cc1NC(=O)CC1CCCC1,–,inactive: -23.1%
CCCC(=O)N1CCC1(C)C(=O)NS(=O)(=O)c1ccc(C)cc1 (centres undefined),–,inactive: 1.19% [at 57.1 µM]
Cn1cccc1/C=N/NC(=O)C(O)c1ccccc1 (centres undefined),–,inactive: -2.59%
Cc1cc(OCC(=O)Nc2nnc(C3CC3)s2)ccc1[N+](=O)[O-],–,inactive: 10.5%
Nc1ccc(-c2c3ccc(=O)cc-3oc3cc(O)ccc23)c(C(=O)O)c1,"inconclusive: 22.4 µM [inhibitor, single point]",–
Cc1c(Cl)cccc1NC(=O)c1cc(-c2ccco2)on1,"inconclusive: 89.1 µM [inhibitor, single point]",–
COc1cc(NC(=S)NCCC(c2ccccc2)c2ccccc2)cc(OC)c1,active: 39.8 µM,–
CCN(CC)c1ccc2nc3c4ccccc4c(=O)cc-3oc2c1,"inconclusive: 2.82 µM [inhibitor, full curve, poor fit]",–
Fc1ccc(NC(=S)Nc2ccccc2OC(F)F)cc1Cl,–,inactive: -23%

# Of the compounds above, four have a nitro group on carbon.
Compound,Potency,"activity change, negative = inhibition"
CCN(C(=O)COC(=O)CSc1ccc([N+](=O)[O-])cc1)C1CCS(=O)(=O)C1 (centres undefined),"inconclusive: 35.5 µM [inhibitor, full curve]",–
O=C(/C=C/c1ccc(Cl)c([N+](=O)[O-])c1)Nc1ccc(NC(=O)c2ccco2)cc1,"inconclusive: 25.1 µM [inhibitor, single point]",–
O=C(CN1c2ccccc2Sc2ccccc21)N/N=C/c1ccc([N+](=O)[O-])cc1,"inconclusive: 4.47 µM [inhibitor, full curve, poor fit]",–
Cc1cc(OCC(=O)Nc2nnc(C3CC3)s2)ccc1[N+](=O)[O-],–,inactive: 10.5%

# (list continues)

Compound,Potency,"activity change, negative = inhibition"
Cc1cccc(OCC(=O)N(Cc2ccc(N(C)C)cc2)C2CCS(=O)(=O)C2)c1 (centres undefined),–,inactive: -13.5%
CCc1cccc(C)c1NC(=O)CN1C(=O)NC(Cc2ccccc2)C1=O (centres undefined),–,inactive: -6.83%
COc1ccc(-c2cc(C(F)(F)F)c3c(n2)sc2c(O)cc(=O)[nH]c23)c(OC)c1,"inconclusive: 25.1 µM [inhibitor, partial curve]",–
O=C(Nc1ccccc1)Nc1nccs1,–,inactive: 12.7%
CCSc1nnc2nc(C)cc(C)n12,–,inactive: 12.5%
O=C(CSc1nc(-c2ccccc2)cc(=O)[nH]1)N1CCc2ccccc21,–,inactive: -28.2%
O=C(CSc1nnc(CNC(=O)c2c(F)cccc2F)o1)NCc1ccccc1Cl,"inconclusive: 89.1 µM [inhibitor, single point]",–
Cc1cccc2cc(C3CC(c4cccs4)=NN3C(=O)CCC(=O)O)c(Cl)nc12 (centres undefined),–,inactive: 1.52%
COc1ccccc1C(=O)NNC(=S)NC(=O)c1ccco1,"inconclusive: 56.2 µM [inhibitor, single point]",–
CC1=NN(c2ccc(C(=O)O)c(N)c2)C(=O)C1,–,inactive: -17.4% [at 57.1 µM]
C#CCOCCOCCOCCNc1nc(N2CCN(C(=O)[C@H](CCC(=O)O)n3cc(C(N)[C@H](C)CC)nn3)CC2)nc(N2CCN(C(=O)[C@H](CCC(=O)O)n3cc(C(N)[C@H](C)CC)nn3)CC2)n1 (some centres undefined),–,inactive: -7.29%
O=C(Oc1c(Br)cc([N+](=O)[O-])cc1Br)c1cccnc1,"inconclusive: 39.8 µM [inhibitor, single point]",–
Cc1cc(/C=N/NC(=O)C(O)(c2ccccc2)c2ccccc2)c(C)n1-c1cccc(C(=O)O)c1,"inconclusive: 50.1 µM [inhibitor, partial curve]",–
N#CC(=C1Nc2ccccc2N1)S(=O)(=O)c1ccccc1,"inconclusive: 89.1 µM [inhibitor, single point]",–
O=c1nc2s/c(=C\c3ccc(-c4ccccc4[N+](=O)[O-])o3)c(=O)n2nc1-c1ccccc1,active: 14.1 µM,–
NCCCC[C@H]1NC(=O)[C@H](CCC(=O)O)NC(=O)c2cc([N+](=O)[O-])cc(I)c2OCC[C@@H](C(N)=O)NC1=O,active: 10 µM,–
COc1ccc(/C=C2\N=C(c3ccc(C)cc3)OC2=O)cc1,"inconclusive: 89.1 µM [inhibitor, single point]",–
O=C(COC(=O)c1ccccc1Cl)NCc1ccco1,"inconclusive: 15.8 µM [inhibitor, full curve, poor fit]",–
COc1ccccc1NC(=O)c1cc2ccccc2o/c1=N\O,active: 100 µM,–
Cc1c(N=Nc2ccc(O)cc2)c(=O)n(-c2ccccc2)n1C,–,inactive: -1.13%
O=C(N/N=C/c1ccc([N+](=O)[O-])cc1)c1ccccc1OCc1ccccc1,"inconclusive: 20 µM [inhibitor, full curve]",–
COC(=O)Cn1c(=NC(=O)c2ccc(S(=O)(=O)N3CCOCC3)cc2)sc2cc(S(N)(=O)=O)ccc21,"inconclusive: 89.1 µM [inhibitor, partial curve]",–
Cc1nc(Nc2ccc(Cl)cc2)c2nnn(Cc3ccccc3)c2n1,–,inactive: 3.89%
COc1ccc2nc(/C(C#N)=C\c3ccc(C(=O)O)cc3)[nH]c2c1,"inconclusive: 20 µM [inhibitor, full curve, poor fit]",–
